The results in this text go back to PMC6906086.

Results are given in words; binding and its absence hold for the method and conditions named.

The target of this experiment is Lsr2 DNA-binding domain, wild type (Mycobacterium tuberculosis H37Rv) (UniProt P9WIP7). The experiment in a line: NMR solution structure and 15N relaxation; both purified.

As for “Lsr2 DNA-binding domain, wild type (from UniProt P9WIP7) (domain or fragment)”, the binding result is “no binding (tested: 0.5mM)”.
